Measured values published in article PMC12040169 (PLOS Biology, 2025).
The list shows a part of the results.

Test system: T1, CTL2-GFP (C. trachomatis L2/434/Bu, GFP-expressing)
T1 construct: L2/434/Bu, GFP-expressing
Design: species or system HeLa; Intracellular C. trachomatis growth in HeLa cells, bulk GFP fluorescence relative to DMSO
Conditions: bulk GFP, single well; 28.5 h, 10 µM; inhibitor

Compound	% of control remaining [%]
CCOc1cc(C)ccc1S(=O)(=O)n1nnc2ccccc21 [CBK287796]	113.924
COc1ccc(C2C=C(c3ccc(OC)c(OC)c3)Nc3ncnn32)c(OC)c1 (stereo not shown) [CBK293934]	141.027
O=C(CC1CCCO1)NS(=O)(=O)c1cccc(-c2nnco2)c1 (stereo not shown) [CBK305267]	131.029
O=C(NCCc1cccs1)C(c1ccccc1)c1ccccc1 [CBK270275]	136.352
CC(=O)Nc1cccc(C(=O)OCC(=O)N2CCCC2)c1 [CBK306395]	135.157
CCN(CC)C(=O)c1sc2ncccc2c1NS(=O)(=O)c1cc(Cl)sc1Cl [CBK050615]	114.589
Cc1nc(S(=O)(=O)N2CCC(C(=O)N3CCCC3)CC2)cn1C [CBK305786]	163.841
CCCNCCc1ccc(NC(=O)Nc2cc(F)cc3c2OCOC3)cc1 [CBK173887T]	115.648
Cc1ccc(N(Cc2cc3cccc(C)c3nc2O)C(=O)c2cccc([N+](=O)[O-])c2)cc1 [CBK265426]	124.182
Cc1cc(C[C@@H]2CCC[C@H]2NCc2nc3ccccc3[nH]2)on1 [CBK284935]	97.4839
Cc1ccc(-c2cnc(SCC(N)=O)n2-c2ccccc2)cc1 [CBK287757]	102.755
CC(C)(C)C1CCC(OC(=O)CCC(=O)Nc2nccs2)CC1 (stereo not shown) [CBK260890]	100
Cc1cc(C)c2[nH]c(C)c(CC(=O)N(C)CCN(C)C)c2c1 [CBK282731]	131.277
CCN(CC)C1=NC(=S)N(C)C(c2ccc(OC)cc2)S1 (stereo not shown) [CBK006804]	88.7846
Cc1ccc(C(=O)Nc2cccc(-c3ccc4nnc(C)n4n3)c2)cc1 [CBK287683]	125.455
Nc1nccc2c1ncn2[C@H]1C[C@@H](O)[C@@H](CO)O1 [CBK201157]	148.237
Cc1ccc(S(N)(=O)=O)cc1C(=O)Nc1nncs1 [CBK050456]	162.967
Cc1c(C(C)NCCc2nnc[nH]2)cnn1-c1ccc(C#N)cc1 (stereo not shown) [CBK304063]	116.88
Cc1c(NC(=O)Nc2ccc(Cl)cc2)sc(=S)n1C [CBK027495]	72.5464
CCCS(=O)(=O)N1CCC(C(=O)NCc2ccc(Cl)cc2Cl)CC1 [CBK305559]	113.061
CC1CCc2c(sc3nc(SCC(=O)NC(c4ccccc4)c4ccccc4)nc(N)c23)C1 (stereo not shown) [CBK267274]	125.531
CC1CCc2c(sc(NC(=O)c3ccncc3)c2C(N)=O)C1 (stereo not shown) [CBK288530]	128.219
Cc1cc(-c2ccc([N+](=O)[O-])cc2)nc2ccc3ccccc3c12 [CBK263253C]	121.798
O=C1NC2CCCCC2NC1CC(=O)N1CCN(Cc2ccccc2)CC1 (stereo not shown) [CBK269484]	139.772
Cc1[nH]c2ccccc2c1C(=O)CSc1nc2scc(-c3ccco3)c2c(=O)n1-c1ccccc1 [CBK267933]	124.789
O=S(=O)(c1ccc(-n2cnc(Cl)c2Cl)cc1)N1CCCN(Cc2ccc3cccc(O)c3n2)CC1 [CBK063088]	107.071
CCCCN1CC(C(=O)OCC)=C(O)C1=O [CBK028774]	120.733

Compound	% of control remaining [%]
CC(=O)Nc1cc2ccccc2nc1C1CCN(C(=O)C(C)C)CC1 [CBK285259]	120.285
c1ccc(Cn2cc(-c3nccnc3OCCn3ccnc3)cn2)cc1 [CBK107102]	127.844
CC1CC(C)CN(CCCNC(=O)c2cc(-c3cccs3)no2)C1 (stereo not shown) [CBK281949]	142.877
Cc1nn(C(C)CC(=O)NCCN2CCC(C)CC2)c(C)c1Cl (stereo not shown) [CBK281558]	121.575
CC(C)(CO)CNc1cc(Cl)nc2ccnn12 [CBK037200]	116.832
COc1ccc(CCNC(=S)NC2CC3CCC2C3)cc1OC (stereo not shown) [CBK015410]	113.69
COc1cccc(C(=O)Nc2ccc(O)c(C)c2)c1 [CBK264413]	131.384
Cc1ccc(-n2c(=O)[nH]c3c(C(=O)Nc4ccccc4)cn(C)c3c2=O)cc1 [CBK287651]	121.566
CCn1c(=O)n(CC(=O)N(C(C)C)C(C)C)c2cccnc21 [CBK283943]	153.852
Cc1c(Cl)cccc1S(=O)(=O)Nc1nc(CSc2ccccn2)ns1 [CBK200054]	103.56
O=S(=O)(/C=C/c1ccccc1)Nc1cccc2cc[nH]c12 [CBK155788]	91.2451
CCN(Cc1ccco1)C(=O)NC1CCCc2c1cnn2CCO (stereo not shown) [CBK305767]	118.289
CCN1CCCC1Cn1c(=S)[nH]c2ccccc2c1=O (stereo not shown) [CBK267849]	145.398
Cc1ccnc(SCC(N)=O)n1 [CBK028874]	143.086
O=C(c1cccc([N+](=O)[O-])c1)c1ccc2c(c1)C(=O)N(Cc1cccnc1)C2=O [CBK262784]	100
CC(=O)Nc1nc2[nH]c(C)c(Cc3ccccc3)c(=O)n2n1 [CBK288202]	127.402
COCCCNC(=O)COc1cc(C)ccc1C [CBK264625]	100
O=C1CC(N2CCN(c3ccc(S(=O)(=O)N4CCOCC4)cc3)CC2)C(=O)N1Cc1ccccc1 (stereo not shown) [CBK268713]	107.036
Cc1cc(-c2cn3ccnc3c(N3CCOCC3)n2)cc(C)c1O [CBK066691]	185.855
Cc1ccc(SCS(=O)(=O)c2ccc(C)cc2)cc1 [CBK026853]	123.16
O=C(Nc1nnc(SCc2cc(=O)n3nc[nH]c3n2)s1)c1ccc(F)cc1 [CBK294399]	121.59
CSc1nnc(-c2ccc(C(C)(C)C)cc2)n1Cc1ccco1 [CBK017071]	99.5376
COc1ccc2nc(N3CCc4ccccc4C3)sc2c1 [CBK287493]	161.196
O=C(O)C1CCN(C(=O)CCn2ccc3cc(Br)ccc32)CC1 [CBK286617]	124.808
CC(=O)N[C@H]1CO[C@H]2[C@@H]1OC[C@@H]2n1nnnc1Oc1ccc(-n2ccnc2)cc1 [CBK289487]	113.004
COC(=O)C1(Cc2ccccc2)CN(C(=O)OC(C)(C)C)CCC1=O (stereo not shown) [CBK003486]	114.617
Cc1cccc2c1CC(=O)NC21CCN(Cc2ccccc2)CC1 [CBK039819]	158.592

Given with each value named: entries from further up.
Cc1cc(-c2ccc([N+](=O)[O-])cc2)nc2ccc3ccccc3c12 [CBK263253C]
  % of control remaining [%]: 121.798
O=C1NC2CCCCC2NC1CC(=O)N1CCN(Cc2ccccc2)CC1 (stereo not shown) [CBK269484]
  % of control remaining [%]: 139.772
Cc1[nH]c2ccccc2c1C(=O)CSc1nc2scc(-c3ccco3)c2c(=O)n1-c1ccccc1 [CBK267933]
  % of control remaining [%]: 124.789

Later entries.

Compound	% of control remaining [%]
CCN1CCN(C(=O)CN(Cc2ccc(F)cc2)S(=O)(=O)c2ccccc2)CC1 [CBK266612]	158.85
O=C(CSc1nnc(-c2cccnc2)o1)c1ccccc1 [CBK068446]	0
Cc1nnc(CN(C)C2CCN(CCCc3ccccc3)C2)n1C (stereo not shown) [CBK304000]	114.227
COc1cc(F)ccc1S(=O)(=O)NC1CC(C)(C)NC(C)(C)C1 [CBK266428]	106.603
C=CCNC(=O)[C@H]1C=CCN1C(=O)Nc1ccccc1Cl [CBK282348]	114.808
O=C(CN(Cc1ccc(F)cc1)S(=O)(=O)c1ccc(Cl)cc1)Nc1ccc2c(c1)OCCO2 [CBK265346]	112.598
COc1ccc(-c2noc(CNC(=O)Cc3ccc(-c4ccccc4)cc3)n2)cc1 [CBK269272]	143.379
CCNC(=O)N1CCN(CCCCN2C(=O)CC3(CCCC3)CC2=O)CC1 [CBK024999C]	112.208
Cc1ccccc1NC(=O)c1cnc2sccn2c1=O [CBK287447]	144.13
COC(=O)CCC(=O)N1CCC2(CCN(Cc3ccccc3)C2)C1 (stereo not shown) [CBK136852]	94.5239
CC(NS(=O)(=O)c1ccccc1Cl)C(=O)N1CCCCC1C (stereo not shown) [CBK305797]	163.316
CCOC(=O)c1sc(NS(=O)(=O)Cc2ccccc2[N+](=O)[O-])nc1C [CBK047458]	114.799
Cc1ccc([N+](=O)[O-])cc1NC(=O)CSc1nnc(Cc2ccccc2)o1 [CBK265889]	97.0345
O=S(=O)(NCCc1cccc(C(F)(F)F)c1)c1cccs1 [CBK044068]	126.328
Cc1cccc(NC(=O)c2cnc3n(c2=O)CCS3)c1 [CBK287375]	109.583
c1ccc(CCNC2CCCc3c2[nH]c2ccc(C4CCCCC4)cc32)cc1 (stereo not shown) [CBK261602C]	120.262
O=C(NC(c1ccccc1)c1ccccc1)N1CCN(Cc2ccccc2)CC1 [CBK155630]	123.209
COc1ccc(/C=C(\C)C(=O)NCc2ccccc2OC2CCNC2)cc1OC (stereo not shown) [CBK034157T]	128.432
CCC(C(=O)NCC1CCCN(C(C)C)C1)n1cnc2ccccc21 (stereo not shown) [CBK282706]	126.741
N#C/C(=C\c1cn(-c2ccccc2)nc1-c1cccc(S(=O)(=O)N2CCCC2)c1)c1nc2ccccc2c(=O)[nH]1 [CBK266296]	194.436
CC#CC1CCCC2N(c3ccccc3)CCN12 (stereo not shown) [CBK028191]	92.8282
Cc1noc(-c2cn(C)nc2C2CCCCN2CC2CC2)c1C (stereo not shown) [CBK283408]	119.807
CCOc1ccc(-c2n[nH]c(=S)n2CCC(=O)N2CCCN(Cc3ccc(C#N)cc3)CC2)cc1 [CBK297893]	124.734
COc1ccc(CN2CCN(C(=O)c3cccc(F)c3)CC2)cc1 [CBK304396]	115.055
CCOc1ccc2c(c1)N1C(=O)NC(C(F)(F)F)(C(F)(F)F)N=C1S2 [CBK025440]	143.225

Retrieved by structure from the entries so far (2):
Compound	% of control remaining [%]
CCOc1ccc2c(c1)N1C(=O)NC(C(F)(F)F)(C(F)(F)F)N=C1S2 [CBK025440]	143.225
Cc1ccccc1NC(=O)c1cnc2sccn2c1=O [CBK287447]	144.13
